Source: PMC8575914
Results are given in words; binding and its absence hold for the method and conditions named. Binding seen in cells or lysates may run through a third protein. Some results given as binding are weak or reduced against the parent protein; the word gives no strength. Where a sequence is shown, tags or fusion partners need not be part of it.

By UniProt entry, the sequences of proteins in these tests, tags left out.
UniProt P23804: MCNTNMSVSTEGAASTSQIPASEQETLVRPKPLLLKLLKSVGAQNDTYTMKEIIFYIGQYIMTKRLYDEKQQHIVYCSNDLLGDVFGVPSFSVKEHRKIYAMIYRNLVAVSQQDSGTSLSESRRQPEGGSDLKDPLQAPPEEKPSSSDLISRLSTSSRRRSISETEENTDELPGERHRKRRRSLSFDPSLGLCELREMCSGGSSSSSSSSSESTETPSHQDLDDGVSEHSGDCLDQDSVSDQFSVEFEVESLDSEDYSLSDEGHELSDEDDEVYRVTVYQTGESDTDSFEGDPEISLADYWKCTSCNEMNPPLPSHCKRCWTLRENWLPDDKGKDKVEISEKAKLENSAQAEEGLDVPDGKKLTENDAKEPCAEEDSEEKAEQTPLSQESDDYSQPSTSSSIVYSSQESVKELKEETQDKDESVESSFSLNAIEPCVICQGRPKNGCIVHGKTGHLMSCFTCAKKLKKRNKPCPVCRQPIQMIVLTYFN

What was measured:
FLAG-MORC2a (mouse) = target: T1, FLAG-MORC2a (mouse) (UniProt Q69ZX6); test: co-IP; anti-FLAG affinity gel, 6 h, on precleared lysates of cells ectopically expressing the tagged proteins; rinsed four times in lysis buffer (50 mM HEPES pH 8.0, 150 mM NaCl, 0.5% Triton-X 100); western blot
T1 sequence: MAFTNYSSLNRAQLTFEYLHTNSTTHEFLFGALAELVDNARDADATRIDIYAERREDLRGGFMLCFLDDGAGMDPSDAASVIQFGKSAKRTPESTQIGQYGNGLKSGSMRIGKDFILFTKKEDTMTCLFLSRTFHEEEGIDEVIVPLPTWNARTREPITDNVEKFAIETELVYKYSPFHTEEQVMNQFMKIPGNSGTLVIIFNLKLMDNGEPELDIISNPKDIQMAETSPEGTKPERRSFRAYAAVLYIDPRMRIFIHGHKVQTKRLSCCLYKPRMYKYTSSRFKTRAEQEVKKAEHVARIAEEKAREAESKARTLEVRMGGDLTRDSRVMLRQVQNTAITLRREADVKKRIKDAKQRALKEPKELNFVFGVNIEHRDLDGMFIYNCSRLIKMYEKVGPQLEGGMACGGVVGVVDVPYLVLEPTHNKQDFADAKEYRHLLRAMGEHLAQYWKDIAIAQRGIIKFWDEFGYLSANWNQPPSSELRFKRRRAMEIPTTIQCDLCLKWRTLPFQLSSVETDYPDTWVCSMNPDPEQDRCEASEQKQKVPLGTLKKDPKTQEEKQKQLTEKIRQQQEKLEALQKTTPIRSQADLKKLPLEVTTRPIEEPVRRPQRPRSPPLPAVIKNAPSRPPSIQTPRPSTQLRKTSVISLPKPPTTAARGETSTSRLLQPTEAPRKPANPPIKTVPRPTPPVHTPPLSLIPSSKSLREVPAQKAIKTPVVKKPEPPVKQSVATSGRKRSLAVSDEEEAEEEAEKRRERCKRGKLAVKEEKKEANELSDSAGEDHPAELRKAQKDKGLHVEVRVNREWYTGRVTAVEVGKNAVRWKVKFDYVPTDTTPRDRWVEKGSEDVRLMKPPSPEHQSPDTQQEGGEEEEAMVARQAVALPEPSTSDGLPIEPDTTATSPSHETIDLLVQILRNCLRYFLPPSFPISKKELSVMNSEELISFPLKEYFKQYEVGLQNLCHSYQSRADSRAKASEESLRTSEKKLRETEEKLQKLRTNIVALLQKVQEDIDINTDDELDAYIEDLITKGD

FLAG-MORC2b (mouse) = target: T2, FLAG-MORC2b (mouse) (UniProt Q8C5W4); test: as above
T2 sequence: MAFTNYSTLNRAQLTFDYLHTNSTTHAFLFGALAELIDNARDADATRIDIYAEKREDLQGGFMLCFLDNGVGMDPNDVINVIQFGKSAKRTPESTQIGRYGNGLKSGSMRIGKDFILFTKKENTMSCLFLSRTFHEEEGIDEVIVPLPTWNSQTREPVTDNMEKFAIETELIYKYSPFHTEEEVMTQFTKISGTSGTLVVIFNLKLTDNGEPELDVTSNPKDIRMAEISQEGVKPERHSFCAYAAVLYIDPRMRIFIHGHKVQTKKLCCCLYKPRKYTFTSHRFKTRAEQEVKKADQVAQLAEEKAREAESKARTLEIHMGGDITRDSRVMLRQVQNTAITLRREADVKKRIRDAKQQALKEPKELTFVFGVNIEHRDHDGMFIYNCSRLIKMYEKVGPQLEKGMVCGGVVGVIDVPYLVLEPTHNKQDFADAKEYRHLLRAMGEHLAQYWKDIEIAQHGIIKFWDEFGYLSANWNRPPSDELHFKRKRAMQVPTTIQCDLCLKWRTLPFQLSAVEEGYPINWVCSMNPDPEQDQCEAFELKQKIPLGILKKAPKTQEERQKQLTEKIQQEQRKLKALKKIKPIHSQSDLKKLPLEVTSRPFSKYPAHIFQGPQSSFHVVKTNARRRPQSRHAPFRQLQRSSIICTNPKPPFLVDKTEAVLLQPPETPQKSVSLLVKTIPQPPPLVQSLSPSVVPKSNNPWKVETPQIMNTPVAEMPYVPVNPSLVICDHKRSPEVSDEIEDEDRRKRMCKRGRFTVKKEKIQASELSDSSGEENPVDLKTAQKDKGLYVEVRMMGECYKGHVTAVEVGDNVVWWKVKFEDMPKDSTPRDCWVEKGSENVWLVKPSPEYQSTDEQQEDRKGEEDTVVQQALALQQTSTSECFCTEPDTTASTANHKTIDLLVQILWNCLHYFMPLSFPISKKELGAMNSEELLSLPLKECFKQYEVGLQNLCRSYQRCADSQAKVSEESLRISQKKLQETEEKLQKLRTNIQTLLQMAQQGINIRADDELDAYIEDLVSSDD

MYC-MDM2 (from UniProt P23804 1-489)
binding (FLAG-MORC2a (mouse)): binds
binding (FLAG-MORC2b (mouse)): binds
